# Library screen at single concentrations

Sequences of proteins named here, by UniProt entry; tags and fusion partners are left off.
UniProt P9WFT3, whole entry: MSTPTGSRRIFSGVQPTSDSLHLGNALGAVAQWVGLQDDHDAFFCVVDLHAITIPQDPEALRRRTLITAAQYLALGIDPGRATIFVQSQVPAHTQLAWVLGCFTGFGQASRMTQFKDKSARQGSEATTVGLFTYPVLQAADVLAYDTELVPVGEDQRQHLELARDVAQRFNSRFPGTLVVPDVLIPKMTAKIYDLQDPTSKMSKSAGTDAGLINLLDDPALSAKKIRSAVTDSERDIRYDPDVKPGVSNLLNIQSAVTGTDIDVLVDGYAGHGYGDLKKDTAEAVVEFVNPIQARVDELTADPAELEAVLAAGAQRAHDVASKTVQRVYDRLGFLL
UniProt P9WPC5, whole entry: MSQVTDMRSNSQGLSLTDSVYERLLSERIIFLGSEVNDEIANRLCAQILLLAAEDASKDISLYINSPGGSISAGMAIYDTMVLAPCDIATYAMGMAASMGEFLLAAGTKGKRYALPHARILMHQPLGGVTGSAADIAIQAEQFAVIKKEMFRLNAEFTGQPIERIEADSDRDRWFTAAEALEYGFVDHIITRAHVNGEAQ
UniProt P9WPC3, whole entry partner: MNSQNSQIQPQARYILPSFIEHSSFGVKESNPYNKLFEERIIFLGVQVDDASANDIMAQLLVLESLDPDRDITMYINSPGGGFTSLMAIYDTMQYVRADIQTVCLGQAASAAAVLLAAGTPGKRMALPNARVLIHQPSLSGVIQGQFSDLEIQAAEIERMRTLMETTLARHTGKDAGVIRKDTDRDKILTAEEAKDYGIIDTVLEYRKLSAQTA
UniProt P9WNZ1, whole entry: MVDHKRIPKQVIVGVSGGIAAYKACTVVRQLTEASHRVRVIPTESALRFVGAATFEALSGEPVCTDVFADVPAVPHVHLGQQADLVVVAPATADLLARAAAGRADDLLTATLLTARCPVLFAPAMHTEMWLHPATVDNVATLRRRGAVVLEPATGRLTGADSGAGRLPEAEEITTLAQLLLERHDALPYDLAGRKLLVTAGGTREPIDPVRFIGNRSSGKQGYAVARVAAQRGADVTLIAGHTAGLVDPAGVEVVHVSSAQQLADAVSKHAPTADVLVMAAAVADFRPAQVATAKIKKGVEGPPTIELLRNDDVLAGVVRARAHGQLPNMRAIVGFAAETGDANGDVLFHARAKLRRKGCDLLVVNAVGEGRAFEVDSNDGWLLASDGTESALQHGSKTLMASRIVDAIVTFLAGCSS
UniProt I6X8D2, whole entry: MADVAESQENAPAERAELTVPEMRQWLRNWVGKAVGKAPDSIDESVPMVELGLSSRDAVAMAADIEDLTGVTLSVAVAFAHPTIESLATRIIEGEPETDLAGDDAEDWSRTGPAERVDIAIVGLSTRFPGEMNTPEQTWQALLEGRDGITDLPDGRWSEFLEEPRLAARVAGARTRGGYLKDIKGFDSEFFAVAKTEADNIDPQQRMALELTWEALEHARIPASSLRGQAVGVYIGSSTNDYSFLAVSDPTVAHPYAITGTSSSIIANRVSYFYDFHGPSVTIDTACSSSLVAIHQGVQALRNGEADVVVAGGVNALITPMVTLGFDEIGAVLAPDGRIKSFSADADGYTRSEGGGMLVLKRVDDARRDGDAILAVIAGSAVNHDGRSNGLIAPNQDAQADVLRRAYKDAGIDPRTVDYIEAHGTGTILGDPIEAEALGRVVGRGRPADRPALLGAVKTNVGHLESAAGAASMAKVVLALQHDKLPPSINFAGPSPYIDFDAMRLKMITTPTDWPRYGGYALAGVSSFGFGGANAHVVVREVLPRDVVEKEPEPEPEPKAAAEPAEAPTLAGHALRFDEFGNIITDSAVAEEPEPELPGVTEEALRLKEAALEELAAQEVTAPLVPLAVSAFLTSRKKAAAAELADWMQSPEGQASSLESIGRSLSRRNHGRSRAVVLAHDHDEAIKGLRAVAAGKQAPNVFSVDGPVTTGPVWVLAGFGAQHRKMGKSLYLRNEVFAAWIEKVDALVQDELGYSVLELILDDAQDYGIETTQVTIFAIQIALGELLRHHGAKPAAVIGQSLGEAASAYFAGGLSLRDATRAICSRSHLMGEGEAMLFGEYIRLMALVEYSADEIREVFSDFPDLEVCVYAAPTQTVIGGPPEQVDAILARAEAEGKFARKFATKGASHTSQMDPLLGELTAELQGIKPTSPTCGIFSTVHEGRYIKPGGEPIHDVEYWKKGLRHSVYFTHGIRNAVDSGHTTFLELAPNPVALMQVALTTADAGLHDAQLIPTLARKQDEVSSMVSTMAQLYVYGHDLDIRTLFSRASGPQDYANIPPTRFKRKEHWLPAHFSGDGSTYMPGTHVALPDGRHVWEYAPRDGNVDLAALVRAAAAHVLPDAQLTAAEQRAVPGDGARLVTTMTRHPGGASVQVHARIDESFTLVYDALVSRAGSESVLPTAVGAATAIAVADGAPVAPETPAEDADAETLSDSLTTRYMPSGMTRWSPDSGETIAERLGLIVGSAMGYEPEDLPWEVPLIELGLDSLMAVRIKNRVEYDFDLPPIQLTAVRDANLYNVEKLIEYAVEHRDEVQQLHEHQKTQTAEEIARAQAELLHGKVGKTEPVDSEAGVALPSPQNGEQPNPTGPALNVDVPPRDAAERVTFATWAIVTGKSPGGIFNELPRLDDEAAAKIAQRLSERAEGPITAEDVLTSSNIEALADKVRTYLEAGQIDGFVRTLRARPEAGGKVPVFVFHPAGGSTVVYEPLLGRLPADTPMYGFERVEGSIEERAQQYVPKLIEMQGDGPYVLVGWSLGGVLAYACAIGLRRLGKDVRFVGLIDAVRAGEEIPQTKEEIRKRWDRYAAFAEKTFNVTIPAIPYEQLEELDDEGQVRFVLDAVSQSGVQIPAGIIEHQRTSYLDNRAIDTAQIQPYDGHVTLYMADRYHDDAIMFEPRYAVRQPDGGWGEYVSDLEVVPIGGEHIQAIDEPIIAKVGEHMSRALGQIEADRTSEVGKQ

Source: ChEMBL document CHEMBL3988442, “University of Dundee, Small-Polar-MMV Screening Library” (2021).

Results are given as percent effect.
The record does not define 0% and 100%; most values in the screen are far below 50% and negative numbers occur (in some assays of this library far below -100).
The compounds are a random part of those screened.
A dash means the value is not listed here; it may have been measured.

A: 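Tryptophan-tRNA ligase, Mycobacterium tuberculosis (UniProt P9WFT3). Enzyme assay of tryptophanyl-tRNA synthetase; the read-out is not stated. Compounds at 10 µM. Higher most likely means stronger inhibition; the record gives no direction and few retests gave an IC50. About 65,000 compounds were tested under these conditions; 0.098% (about 64) showed 50% or more at least once.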
B: 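Assay of Toxoplasma gondii numbers, read through their beta-galactosidase reporter with a colour substrate. Tested at 10 µM. Higher reads as fewer parasites (inferred from which compounds were picked for retests). Of about 67,000 compounds tested this way, about 260 (0.38%) reached 50% or more in at least one test.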
C: 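Protease assay of ClpP1P2, read by the AMC dye that it sets free. Target: ClpP1P2, Mycobacterium tuberculosis (UniProt P9WPC5 and UniProt P9WPC3). Compounds at 50 µM. Higher reads as stronger inhibition, judged from the few compounds that gave an IC50. Most other retested compounds had strongly negative values. About 69,000 compounds were tested under these conditions; 0.015% (about 10) showed 50% or more at least once.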
D: 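Coenzyme A biosynthesis protein CoaBC, Mycobacterium tuberculosis (UniProt P9WNZ1). Enzyme assay of CoaBC with a phosphate dye (Biomol Green) read at 650 nm. Tested at 30 µM. Direction is inferred from only a few compounds that gave an IC50; most scored high, so higher reads as stronger inhibition. Most strong results did not repeat in a second test. About 67,000 compounds were tested under these conditions; 0.06% (about 40) showed 50% or more at least once.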
E: 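Polyketide synthase Pks13, Mycobacterium tuberculosis (UniProt I6X8D2). Enzyme assay of the thioesterase domain of polyketide synthase 13; the read-out is not stated. Tested at 30 µM. Higher reads as stronger inhibition (inferred from which compounds were picked for retests). Size under these conditions: about 67,000 compounds, about 300 of them at 50% or above in at least one test.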

compound,A,B,C,D,E
Cc1csc(C2CCCCN2C(=O)COCc2nc(C)no2)n1 (stereo not given),0.3096%,3.553%,2.65%,-,-39.42%
CC(C)CN1CCN(C(=O)c2ccncc2F)Cc2cccnc21.O=C(O)C(F)(F)F.O=C(O)C(F)(F)F,-,0.9588%,-,-,-
CN(C)c1ncc(-c2ccc(C(N)=O)cc2)c(C2CNCCO2)n1 (stereo not given),-3.017%,2.971%,-42.23%,0.9132%,-2.633%
CCOc1ccc(N(C)Cc2nnc(C)o2)cc1,11.18%,-6.44%,-3.843%,13.84%,-18.82%
O=C(Nc1nnc(C2CC2)s1)NC1CCN(Cc2ccccc2)C1 (stereo not given),-5.419%,-33.91%,20.19%,3.109%,4.272%
O=C(Nc1ccc(-c2csnn2)cc1)NC(CCO)C1CC1 (stereo not given),0.9524%,24.28%,-7.864%,-0.3774%,-18.75%
CCCc1cc(C(=O)N2CCC3(CC2)CN(CCN(C)C)C(=O)O3)no1,4.686%,7.445%,-1.425%,-10.2%,-31%
Cn1c(=O)c2c(c3ccccc31)OC(C)(C)CC2,-0.08157%,-1.393%,-6.914%,2.685%,-5.337%
Cn1nc(C(=O)N2CCOCC2)cc1C(=O)Nc1c(Cl)cccc1Cl,-3.518%,-9.622%,-21.1%,-2.428%,-12.58%
[H][C@@]12C[C@H](C(=O)N(C)C)[C@@]([H])(CN(S(=O)(=O)CC(C)C)C1)O2,-,6.564%,-,-,-
[H][C@@]12CN(Cc3cccnc3)CCO[C@]1([H])CN(Cc1scnc1C)C2,-,-0.947%,-,-,-
[H][C@]12CC[C@@]3(N=C(CC)NC3=O)[C@@]1([H])CN(C(=O)NCc1ccccc1C)C2,-,-4.647%,-,-,-
CCOC1CC2(CCN(C(C)=O)CC2)c2cc(F)ccc21 (stereo not given),0.8721%,3.67%,-3.316%,-,-30.07%
CC(c1nc(C(C)(C)C)no1)N1CCN(Cc2ccc(C#N)cc2)CC1 (stereo not given),-7.045%,-5.596%,5.706%,5.263%,15.73%
O=C(C1CC1)N1CCC2(CCCN2Cc2ccc(F)cc2)CC1,-1.89%,-,3.191%,2.445%,-38.9%
Cc1cccc(CN2C[C@H](OCc3csc(C)n3)[C@H]3COC[C@H]32)n1,-2.553%,-,-14.39%,-0.1233%,-2.96%
CC(=O)N1N=C(c2cccs2)OC1C(=O)NCCc1cccc(Cl)c1 (stereo not given),-,7.126%,4.151%,-0.7282%,-9.978%
NC(=O)CN1CC(c2nc(C3CC3)no2)C1.O=C(O)C(=O)O,-,-8.991%,-,-,-
O=C1CCSCC(C(=O)N2CCOCC2)N1 (stereo not given),1.354%,-2.408%,-7.804%,-3.625%,-9.299%
Cc1ccc(NC(=O)NCC2CCS(=O)(=O)C2)cc1Cl (stereo not given),-2.581%,-5.445%,28.83%,2.02%,-9.278%
Cn1cc(C(=O)N[C@@H]2CN(Cc3ccc(F)cc3)[C@@H]3CCCO[C@@H]32)cn1,-2.604%,-,4.042%,6.515%,-34.12%
CC1CCN(CCNC(=O)Nc2ccc(F)cc2Cl)CC1,7.848%,0.7585%,3.968%,-5.769%,23.04%
CC(C)(C)C(=O)N1CCCC1c1nccnc1Cl (stereo not given),2.108%,-0.5168%,-10.13%,7.226%,-4.077%
CN(C)CCN(Cc1ccsc1)C(=O)C1=NNC(=O)CC1,-2.058%,-,-9.671%,-0.615%,-
C[C@@H]1CN(CC(C)(C)N2CCOCC2)C[C@@]1(O)C1CC1,3.003%,-7.246%,-10.79%,3.213%,-23.75%
CCOc1ccccc1CCNC(=O)NCC(O)c1ccsc1 (stereo not given),-1.554%,8.086%,-20.28%,2.258%,3.117%
O=c1[nH]nc2nc(N3CCSCC3)ccn12,-1.814%,-19.35%,-10.39%,1.631%,-20.92%
Cc1nonc1CN1CC[C@@](O)(C2CCOCC2)[C@H](C)C1,0.2467%,11.63%,-8.22%,5.276%,1.266%
CN1CCCN(C(=O)c2nc3c(n2C)CCN(c2ncccn2)C3)CC1,7.443%,-3.074%,10.53%,-,-2.244%
CN(Cc1cccnc1)CC1CNCc2nccn2C1 (stereo not given),-1.235%,-19.85%,-8.305%,0.7614%,-19.22%
CNC(=O)C1(c2cnccn2)CCCN1C(=O)c1ccccc1 (stereo not given),-,-10.07%,18.65%,2.696%,-17.24%
Cc1c(C(=O)N[C@H]2CN(CCS(C)(=O)=O)C[C@@H]2C2CC2)cnn1C,1.432%,10.27%,-8.651%,-4.019%,-26.58%
O=C(O)c1cc2c(nc1N1CCOCC1)CCN(C1CCOC1)CC2 (stereo not given),1.833%,-,-3.913%,5.684%,-20.59%
CC[C@@H]1N(CC2CC2)CCC[C@]12CCC(=O)N2CCOC.O=C(O)C(F)(F)F,-,1.389%,-,-,-
CC(=O)c1cccc(OCC(=O)NS(=O)(=O)c2ccc(C)s2)c1,2.911%,-,2.506%,2.314%,-21.77%
CC1(C)Cc2ccccc2-c2nc(NCCO)[nH]c(=O)c21,-2.648%,2.162%,-24.45%,3.374%,88.08%
O=C(NCc1ccco1)N1CCC(n2cc(-c3ccccn3)nn2)CC1,0.2463%,-11.19%,-9.019%,-2.088%,-6.633%
Cc1nsc(NC(=O)NC2(CN3CCOCC3)CCCC2)n1,-1.459%,-66.49%,-9.994%,-0.4963%,-3.687%
Cc1ccc(CC(=O)N2CCN(CC(C)O)CC2)cn1 (stereo not given),-3.955%,11.47%,-27.65%,3.169%,-10.38%

The last 3 entries again:

compound,A,B,C,D,E
O=C(NCc1ccco1)N1CCC(n2cc(-c3ccccn3)nn2)CC1,0.2463%,-11.19%,-9.019%,-2.088%,-6.633%
Cc1nsc(NC(=O)NC2(CN3CCOCC3)CCCC2)n1,-1.459%,-66.49%,-9.994%,-0.4963%,-3.687%
Cc1ccc(CC(=O)N2CCN(CC(C)O)CC2)cn1 (stereo not given),-3.955%,11.47%,-27.65%,3.169%,-10.38%